# Measurements as given in the supplement of paper PMC3334620.
# The full ranking holds about 33,000 sequences; the median of “E-score (-0.5 to 0.5)” is about -8e-05, and the highest 2% start at about 0.23. The list shows a part of the results.
# Molecular target: T1, Nrg2 (UniProt P38082)
# T1 sequence: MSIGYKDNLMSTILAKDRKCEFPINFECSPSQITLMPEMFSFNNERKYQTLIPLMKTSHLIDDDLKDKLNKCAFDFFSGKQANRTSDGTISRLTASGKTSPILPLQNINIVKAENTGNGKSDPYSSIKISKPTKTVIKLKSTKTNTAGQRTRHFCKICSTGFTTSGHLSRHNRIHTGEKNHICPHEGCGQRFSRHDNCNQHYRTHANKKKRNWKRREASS
# Test: PBM E-score (8-mer binding enrichment) (E-score (-0.5 to 0.5)); higher = stronger / more preferred TF binding
# Conditions: protein concentration: 100 nM; construct: GST-full length
# Outline: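 Yeast transcription factors carrying a GST tag, as full-length proteins or DNA-binding domains, were produced by PURExpress in vitro transcription/translation. About 100-200 nM protein was applied to universal all-10-mer Agilent arrays, double-stranded by primer extension on fresh or once-stripped slides. Bound protein was detected with fluorescent anti-GST, and scans were normalised with masliner. The Universal PBM Analysis Suite gave each ungapped eight-base word, pooled with its reverse complement, an E-score, a modified Wilcoxon-Mann-Whitney statistic.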
row,Sequence,PBM E-score
1,ACTGAACG,-0.215
2,GTGACAGA,-0.0305
3,CGCCGGCA,0.0711
4,ACGGGCCA,-0.105
5,CAAAGGCC,-0.158
6,CCCCTGCG,-0.0622
7,GACTGTGC,-0.176
8,CCGACCCA,0.00941
9,ACCCCGTA,0.173
10,AAAAAAAC,-0.0597
11,GAAACGAC,0.161
12,ACCTAACA,0.0119
13,CAAGGACG,-0.221
14,ACTTGAGG,-0.0464
15,GCTGCACA,-0.124
16,AGACAGTG,0.00117
17,AGGGAATG,0.032
18,AGAATTCT,0.105
19,CCTGTCGC,-0.0429
20,ATGTCTGG,0.0226
21,AGCACAGA,0.132
22,GAAATCTA,0.0661
23,AGACTTTA,-0.178
24,GAATAGCA,0.0807
25,GTAGTTTA,0.138

row,Sequence,PBM E-score
1,CCTTTTTC,0.0818
2,CGCTAGTC,-0.343
3,GGCAGAAA,0.286
4,GTCCTCAC,-0.0771
5,AACGGCTA,0.0404
6,AAGCAATA,0.0458
7,ATAGGCCC,-0.0444
8,AAGTACAC,0.0484
9,CTCGTCTA,-0.124
10,AGAGAGCT,-0.238
11,CCAGGCCG,0.022
12,CGCACATA,-0.115
13,CAAAAGGA,-0.0703
14,AGTTGGGG,0.138
15,ATTCAAGA,-0.0613
16,GACGAACA,0.0883
17,ATGGGATA,-0.0785
18,ATCGCATA,-0.0253
19,GAAAACCA,0.0315
20,ATCCAAAT,0.0165
21,TGACTCAA,-0.167
22,ATTCCCAA,0.0933
23,CCCTCTTC,-0.169
24,GCGGGCCC,0.0657
25,AGATTCCG,0.101

row,Sequence,PBM E-score
1,GGTCCTTA,0.176
2,ACTGCTCA,0.104
3,ACATTAAC,0.0369
4,AGCGTCCT,-0.255
5,CTCCTTAC,-0.175
6,ACGAGGAT,-0.142
7,AGTTCCGC,0.0436
8,GTTTTTCA,0.0378
9,AGTTATAA,-0.0485
10,ATGTCGTG,-0.0456
11,CGTACAAG,0.0307
12,CGCATGTA,-0.0453
13,CTAATTCA,0.0248
14,ACTGTTAC,0.0438
15,AAGCTCGA,0.0207
16,ATGTCTGA,0.0588
17,CAGTGAAA,0.0943
18,ACAGCCGG,0.0348
19,ACCAAGCA,-0.00609
20,CATATTAA,0.129
21,CCATTTTC,0.18
22,ACCGCCTA,-0.0101
23,ACAGCACC,-0.119
24,AGTTATGC,0.103
25,GGTTTGGA,0.0625

row,Sequence,PBM E-score
1,GTGAGGGA,-0.00312
2,TAAGCACA,0.151
3,AATTCTGA,-0.0333
4,GTCCTCAA,-0.0142
5,CGGGTCCC,-0.125
6,ATCCCATG,0.0795
7,ATGTGCTC,0.146
8,GACGCGGA,-0.174
9,CAACGTCG,0.0688
10,CTCAAGGC,0.0792
11,ATACACTC,0.0982
12,ATCCAGCA,-0.0662
13,GCGTATAC,-0.083
14,GGTCAGCA,0.0136
15,CCGCATAC,0.0863
16,ATGGAGTA,0.124
17,AGGAGAAC,-0.0432
18,CGTTGTAC,-0.0776
19,AGTCAAAA,0.00477
20,CTTCAGGA,-0.142
21,ACACTTCA,0.103
22,CCAGCATA,-0.0394
23,ATCGGTCC,-0.0258
24,CCTGATAG,-0.153
25,GTCTCGGA,0.141

row,Sequence,PBM E-score
1,AGGCTTGC,-0.173
2,AGAGCTCG,-0.0912
3,TATGCACA,0.172
4,CGCATATA,0.0344
5,CCCCCCTA,-0.361
6,GGCGCGTA,-0.0598
7,GATATTCC,0.0921
8,TCCTAGGA,-0.0933
9,ACTTTACC,-0.03
10,TGGGATAA,-0.066
11,GAGTCGAA,0.142
12,ATGATTCC,0.094
13,GTTCTATA,0.137
14,AGATCAGG,-0.0654
15,CTTGACCC,-0.0766
16,AGCGTCAC,-0.0819
17,CTTCATGC,0.0226
18,AATGACAT,0.126
19,CATTGAAC,0.0343
20,ACCTCAAG,0.0492
21,TAAAGTAA,-0.0473
22,AAGAGCAA,-0.115
23,ACATCGGT,-0.187
24,GTGCGCAC,0.172
25,CGCTAAAA,0.0304

# Rewritten as tab-separated lines: entries from further up.
row	Sequence	PBM E-score
1	AGGCTTGC	-0.173
6	GGCGCGTA	-0.0598
8	TCCTAGGA	-0.0933
13	GTTCTATA	0.137
22	AAGAGCAA	-0.115
23	ACATCGGT	-0.187

# 4 entries from above, tab-delimited:
row	Sequence	PBM E-score
4	CGCATATA	0.0344
9	ACTTTACC	-0.03
18	AATGACAT	0.126
25	CGCTAAAA	0.0304

# Carrying on.

row,Sequence,PBM E-score
1,CCCATAGA,0.0165
2,ACCGCCAG,-0.0959
3,AAGTGACG,0.0876
4,GAAAGTAA,-0.0444
5,TCGTGACA,-0.19
6,CCCCCGGG,-0.304
7,AGCACGGG,-0.00766
8,ACGTGCCG,-0.0425
9,CAATAGAG,0.0322
10,CATACCTA,-0.0293
11,AGAAGGTC,0.0754
12,GGAGCAGA,-0.0316
13,AGAAGTAT,0.124
14,CGCGTAGA,0.22
15,ACCGAAGG,-0.0673
16,GCCGAGGA,0.117
17,GAGGTGGA,-0.18
18,TACTAAGA,0.123
19,CGAGTCCG,-0.0327
20,AAGACTGG,-0.0909
21,CGACAGAG,0.0109
22,TGGAGCCA,-0.23
23,CAGGGGTC,0.302
24,CCTCGTCG,0.0198
25,AGATAGGC,-0.0082

row,Sequence,PBM E-score
1,ACTGCAGA,-0.0354
2,GGGTCCAC,0.301
3,AACTCGGC,0.245
4,CTAGTTAA,0.0857
5,CTGCGGAC,-0.114
6,ACCACAGC,-0.0543
7,CTGGAAAA,0.0356
8,CTACCTAC,0.0419
9,CACAGGTA,0.0699
10,GGGGTCAC,-0.0806
11,CAAGCGGG,-0.108
12,AACTACTT,0.0815
13,CAACGAAC,0.126
14,AGAGGAGA,-0.269
15,AGAAATTA,0.228
16,CTGCCGGC,-0.0362
17,GTGGAACA,-0.0101
18,GAAACAGA,0.04
19,TACCCACA,-0.0533
20,TCTCCCCA,-0.0411
21,CAATAACC,0.0677
22,TAAGGGTA,0.096
